Out of some 320,000 compounds screened, about 620 (0.19%) were called active. The inconclusive results got no clear call from the source; some entries with a clear call stand among them for comparison. No stated cut-off is given here; in the data, active means activation above about 80%; inconclusive means between about 30% and that limit; inactive means weaker than that.
What follows are molecules tested against Transient receptor potential cation channel subfamily V member 1 (Homo sapiens) (UniProt Q8NER1) (assay: HTS Assay for Compounds that Act as Agonists of the Vanilloid Receptor 1). Details: TRPV1-expressing cells, Fluo-8 calcium influx, agonist mode; at 8.33 µM, hits give high values.
Summary of the method: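 Cells expressing TRPV1 were dye-loaded with Fluo-8 and read kinetically: 10 s baseline, 3 min after compound (agonist portion), then 2 min after EC20 capsaicin (allosteric enhancer portion). Calcium-bound dye fluorescence at 480/520 nm.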
Further: 0% is about no effect.

The chains behind the UniProt entries cited, without tags or fusion partners.
UniProt Q8NER1, whole entry, looked up: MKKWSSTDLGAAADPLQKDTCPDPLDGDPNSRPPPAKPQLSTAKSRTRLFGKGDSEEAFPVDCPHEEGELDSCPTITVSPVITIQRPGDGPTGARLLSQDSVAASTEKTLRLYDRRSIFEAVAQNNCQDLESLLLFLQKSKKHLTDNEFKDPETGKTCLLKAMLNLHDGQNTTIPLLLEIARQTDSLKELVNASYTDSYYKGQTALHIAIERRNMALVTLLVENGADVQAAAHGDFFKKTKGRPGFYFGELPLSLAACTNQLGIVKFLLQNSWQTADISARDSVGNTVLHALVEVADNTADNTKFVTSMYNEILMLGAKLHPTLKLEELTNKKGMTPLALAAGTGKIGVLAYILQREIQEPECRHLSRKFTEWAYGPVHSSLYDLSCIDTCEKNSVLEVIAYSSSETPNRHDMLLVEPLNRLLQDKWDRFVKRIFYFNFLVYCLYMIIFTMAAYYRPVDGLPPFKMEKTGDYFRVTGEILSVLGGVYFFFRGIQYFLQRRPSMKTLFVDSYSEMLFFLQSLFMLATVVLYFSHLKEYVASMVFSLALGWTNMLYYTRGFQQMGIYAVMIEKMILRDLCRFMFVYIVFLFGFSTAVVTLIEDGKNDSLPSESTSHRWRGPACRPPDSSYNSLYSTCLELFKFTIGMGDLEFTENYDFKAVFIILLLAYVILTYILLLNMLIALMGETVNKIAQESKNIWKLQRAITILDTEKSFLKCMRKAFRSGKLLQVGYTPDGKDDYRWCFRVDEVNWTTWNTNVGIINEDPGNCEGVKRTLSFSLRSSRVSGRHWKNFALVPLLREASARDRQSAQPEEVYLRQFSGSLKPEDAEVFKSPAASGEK

| Compound | activation |
| --- | --- |
| CC(Oc1cc2oc(=O)c3c(c2cc1Cl)CCCC3)C(=O)NCc1ccccn1 (stereo unspecified) | inconclusive: 37% |
| CCc1ccc(-c2cc(C)no2)cc1S(=O)(=O)N1CCN(c2cccc(C)c2C)CC1 | inconclusive: 41.8% |
| Cc1ccc(Cl)c(OCC(=O)Nc2ccc3c(c2)OCCO3)c1 | inconclusive: 58.1% |
| NC(=O)C1CCN(C(=O)COc2ccc3ccccc3c2Br)CC1 | inconclusive: 39% |
| CCOC(=O)c1cnc(-n2nc(C)cc2C)nc1Nc1ccc(N(C)C)cc1 | inconclusive: 50.8% |
| Cn1c(NCc2ccco2)nc2c1c(=O)n(Cc1ccc(Cl)c(Cl)c1)c(=O)n2C | inconclusive: 39.2% |
| O=C(NC12CC3CC(CC(C3)C1)C2)c1ccccc1O | inconclusive: 42.7% |
| COc1ccc(NC(=O)C2CC(c3ccc(Cl)cc3)=NO2)cc1OC (stereo unspecified) | inconclusive: 56.9% |
| O=C(NCc1ccccc1F)C1CC(=O)N(c2ccc3c(c2)OCCO3)C1 (stereo unspecified) | inactive: -0.23% |
| O=C(Nc1cccnc1)c1ccc(N2CCOCC2)c([N+](=O)[O-])c1 | inconclusive: 63.8% |
| Cc1nc(-c2ccccc2)sc1C1(C)CC(c2cccc([N+](=O)[O-])c2)=NO1 (stereo unspecified) | inactive: 27.4% |
| S=C(NCc1ccncc1)Nc1ccc(Br)cc1 | inconclusive: 76% |
| CCOCc1c(C(=O)N2CCN(Cc3ccc(Br)s3)CC2)oc2ccccc12 | inconclusive: 38.5% |
| Cc1ccc(NC(=O)c2nc[nH]c2C(=O)N2CCC(C)CC2)cc1 | inactive: 15.9% |
| Cc1cccc(C)c1N1C(=O)C2ON(c3ccccc3)C(c3ccncc3)C2C1=O (stereo unspecified) | inconclusive: 36.6% |
| O=C(/C=C/c1cccc([N+](=O)[O-])c1)N1CCN(c2ccc(F)cc2)CC1 | inconclusive: 36.5% |
| Cc1cc(C(=O)COC(=O)C2=NNC(=O)CC2)c(C)n1-c1cccc(C(F)(F)F)c1 | inconclusive: 31.1% |
| Cc1nn(CCC(=O)NNC(=S)NCC(C)C)c(C)c1Br | inactive: 1.27% |
| CCCC(C)NC(=O)CSc1nc2ccc(C)cc2[nH]1 (stereo unspecified) | inconclusive: 67.2% |

| Compound | activation |
| --- | --- |
| Nc1c(-c2ccccc2)cnc2cc(-c3ccccc3)nn12 | inconclusive: 37.5% |
| NS(=O)(=O)c1ccc(CCNC(=O)C2CCCN2S(=O)(=O)c2cccc3nsnc23)cc1 (stereo unspecified) | inactive: -1.9% |
| Cc1cc(C(=O)CSc2n[nH]c(N)n2)c(C)n1-c1ccc(F)cc1 | inconclusive: 33.2% |
| CCCC1=Nc2cc(C(=O)NCCCOCC)ccc2Sc2ccccc21 | inconclusive: 41.5% |
| O=C(CCSCc1ccc(Cl)cc1)NCCC1=CCCCC1 | inconclusive: 53.1% |
| NS(=O)(=O)c1ccc(CCNC(=O)Cc2ccccc2[N+](=O)[O-])cc1 | inactive: 0.84% |
| Cc1ccc(C(=O)/C=C/Nc2ccccc2C(N)=O)o1 | inactive: -0.416% |
| O=C(Nc1ccc(F)c(F)c1)c1ccccc1 | inconclusive: 33.3% |
| CC(C)Oc1ccccc1/C=N/NC(=O)c1ccc(F)cc1 | inconclusive: 49.3% |
| Cc1ccc(C(=O)n2c(-c3ccccc3)cnc2SCC(=O)Nc2ccc(C)cc2C)cc1 | inconclusive: 32.6% |
| Cc1ncc2c(c1OC(=O)c1ccc([N+](=O)[O-])cc1)COC(C)(C)OC2 | inconclusive: 44.7% |
| CC(C)CCN(CC(=O)NCc1ccc(F)cc1)S(=O)(=O)c1ccccc1F | inconclusive: 37.6% |
| O=C(Cc1ccccc1[N+](=O)[O-])N1CCN(c2ccccc2F)CC1 | inconclusive: 63.6% |
| COc1cccc(-n2nnc3c(=O)n(Cc4ccc(F)cc4)cnc32)c1 | inconclusive: 32% |
| CCCSc1nc2cc(S(=O)(=O)N3CCOCC3)ccc2n1CC | inconclusive: 58% |
| CC(=O)N1CCc2cc(S(=O)(=O)N3CCc4ccccc43)ccc21 | inactive: -6.04% |
| COc1ccc(/C(C)=N/NC(=O)CNC(=O)c2ccco2)cc1 | inactive: -3.17% |
| COc1ccc(C(=O)NCCS(=O)(=O)NCc2ccc(F)cc2)cc1 | inactive: 2.07% |
| CC(C)c1cc(C(=O)NNC(=S)NCc2ccco2)c(O)c(C(C)C)c1 | inactive: 10.2% |

An excerpt of these results, field by field.
CC(=O)N1CCc2cc(S(=O)(=O)N3CCc4ccccc43)ccc21
  activation: inactive: -6.04%
COc1ccc(/C(C)=N/NC(=O)CNC(=O)c2ccco2)cc1
  activation: inactive: -3.17%

Next part:

| Compound | activation |
| --- | --- |
| O=C(NC1CCCCC1)c1ccc(-c2cccc([N+](=O)[O-])c2)o1 | inconclusive: 51.1% |
| CCOC(=O)C1=C(N2CCCCC2)c2cc3c(n2C1=O)CCCC3 | inconclusive: 44.9% |
| Cc1ccc(S(=O)(=O)Oc2ccc(/C=C3/C(=N)N4C(=NC3=O)SN=C4S(C)(=O)=O)cc2)cc1 | inactive: -0.322% |
| COc1cc(C(C)=O)ccc1OCC(O)CN1CCN(c2c(C)cccc2C)CC1 (stereo unspecified) | inactive: 3.11% |
| CCNC(=O)CSc1nc2cc([N+](=O)[O-])ccc2n1-c1cccc(C(F)(F)F)c1 | inconclusive: 32.1% |
| Cc1ccc(-c2nc3sc(C(N)=O)c(N)c3c3c2CCCC3)cc1 | inactive: 1.46% |
| N[C@@H](Cc1ccc(O)cc1)C(=O)Nc1ccc2ccccc2c1 | inconclusive: 76.6% |
| COc1cccc(C(=O)N(C)CC2CCN(CCc3cccc(C(F)(F)F)c3)CC2)c1 | inactive: 0.529% |
| O=C(COC(=O)Cc1ccc(Cl)cc1)NCCc1ccccc1 | inconclusive: 42% |
| O=C(Nc1ccccc1)Nc1ccncc1 | inconclusive: 37.6% |
| CC(=O)c1c(C)[nH]c(C(=O)NCCc2cccc(C)c2)c1C | inconclusive: 57.4% |
| O=C(Nc1ccc(F)cc1)c1ccc(S(=O)(=O)N2CCCC2)cc1 | inconclusive: 60.9% |
| O=C(c1ccccc1Cl)N1CCCC(c2nc3c(nnn3Cc3ccccc3)c(=O)[nH]2)C1 (stereo unspecified) | inconclusive: 40.2% |
| COc1ccc(/C=C/C(=O)NC2CC3CCC2C3)cc1 (stereo unspecified) | inconclusive: 44.9% |
| CCc1nc(Nc2ccc3c(c2)OCCO3)c2oc3ccccc3c2n1 | active: 89.5% |
| CCOC(=O)c1c(CSc2ccccc2)n(C)c2cc(Br)c(OCC(O)CNC(CO)(CO)CO)cc12 (stereo unspecified) | inactive: 7.69% |
| CC(Cc1cccs1)NC(=S)Nc1ccc(Cl)cc1 (stereo unspecified) | inconclusive: 36.4% |
| O=C(N/N=C/c1ccccn1)c1ccc(S(=O)(=O)N2CCCCCC2)cc1 | inconclusive: 77.4% |
